No constants are given. Whether binding was seen depends on the method and setting. Some results given as binding are weak or reduced against the parent protein; the word gives no strength. Sequences can lack the tags named with a protein.
Molecular target: UBC-1M3U(D157L,E158L,D161L)-Linker14-HA (Escherichia coli (strain ATCC 8739 / DSM 1576 / NBRC 3972 / NCIMB 8545 / WDCM 00012 / Crooks)) (UniProt B1IQK6)
Test: self-assembly in cultured mouse hippocampal neurons; anti-HA immunofluorescence, confocal

binding: binds
B1: UBC-1M3U(D157L,E158L,D161L)-Linker14-HA (protein)
chain: MKPTTISLLQKYKQEKKRFATITAYDYSFAKLFADEGLNVMLVGDSLGMTVQGHDSTLPVTVADIAYHTAAVRRGAPNCLLLADLPFMAYATPEQAFENAATVMRAGANMVKIEGGEWLVETVQMLTERAVPVCGHLGLTPQSVNIFGGYKVQGRGLLAGLQLLSDALALEAAGAQLLVLECVPVELAKRITEALAIPVIGIGAGNVTDGQILVMHDAFGITGGHIPKFAKNFLAETGDIRAAVRQYMAEVESGVYPGEEHSFHGGSGGTGGSGGTGYPYDVPDYA

— patent US20230250139A1 (MIT, published 2023)
